Measurements from patent publication US5945507A, “Antimicrobial peptides” (University of Pittsburgh, priority 1997, dated 1999).
Part of at least one peptide drawing is inferred or uncertain, most often the ends. Ends that are not written are not given here.

Key:
P. aeruginosa = experiment: Bacterial lysis assay / MBC against P. aeruginosa; format: cell-based, Pseudomonas aeruginosa
[1] = system: Vancomycin-resistant E. faecalis; experiment: Bacterial lysis assay / MBC against vancomycin-resistant E. faecalis; format: cell-based, Enterococcus faecalis
E. faecalis = experiment: Bacterial lysis assay / MBC against E. faecalis; format: cell-based, Enterococcus faecalis
S. marcescens = experiment: Bacterial lysis assay / MBC against S. marcescens; format: cell-based, Serratia marcescens
[2] = system: Methicillin-resistant S. aureus; experiment: Bacterial lysis assay / MBC against methicillin-resistant S. aureus; format: cell-based, Staphylococcus aureus
[3] = Table 5, 50% reduction of CFU/ml
[4] = Table 5, 99.9% reduction of CFU/ml

## GIGKFLHSAKKFGKAFVGEIMNS [magainin 2, reference compound]
P. aeruginosa; FIG. 3
  activity (in words): somewhat effective
P. aeruginosa; [3]
  MBC50: 1.3 µM
P. aeruginosa; [4]
  MBC: 5 µM
[1]; [3]
  MBC50: .63 µM
[1]; [4]
  MBC: > 10 µM
E. faecalis; [3]
  MBC50: 2.5 µM
E. faecalis; [4]
  MBC: > 10 µM
S. marcescens
  bactericidal activity (in words): ineffective
S. marcescens; [3]
  MBC50: 2.5 to 5 µM
S. marcescens; [4]
  MBC: > 10 µM
[2]; [3]
  MBC50: 5 to 10 µM
[2]; [4]
  MBC: > 10 µM
